Source: patent US8039456B2, “Method of stimulating the motility of the gastrointestinal system using ipamorelin” (Helsinn Therapeutics (U.S.), Inc., priority 2004, dated 2011)

Tested on: morphine-induced slowing of gastric emptying
Conditions: morphine 0.05 mg/kg IV, healthy male volunteers

## CN1CC[C@]23c4c5ccc(O)c4O[C@H]2[C@@H](O)C=C[C@H]3[C@H]1C5 [morphine]
  gastric emptying as determined by plasma acetaminophen levels: delayed gastric emptying
